Compound in the assay: Cc1cc(ccc1-c1ccccc1)C(=O)N1CCCN(CC1)C(=O)CCl [compound 10]
Description: probe-labelled cysteine peptide fold change vs DMSO (competition) (log2 fold change); higher = less target engagement (more negative = stronger competition). The conditions noted are these: THP-1, incubation time: 4 h.

Chains of the proteins cited; added tags and fusions are not shown. Lines headed by an entry give the natural chain unless they say otherwise; changes in a name come on top.
UniProt Q9H6R4: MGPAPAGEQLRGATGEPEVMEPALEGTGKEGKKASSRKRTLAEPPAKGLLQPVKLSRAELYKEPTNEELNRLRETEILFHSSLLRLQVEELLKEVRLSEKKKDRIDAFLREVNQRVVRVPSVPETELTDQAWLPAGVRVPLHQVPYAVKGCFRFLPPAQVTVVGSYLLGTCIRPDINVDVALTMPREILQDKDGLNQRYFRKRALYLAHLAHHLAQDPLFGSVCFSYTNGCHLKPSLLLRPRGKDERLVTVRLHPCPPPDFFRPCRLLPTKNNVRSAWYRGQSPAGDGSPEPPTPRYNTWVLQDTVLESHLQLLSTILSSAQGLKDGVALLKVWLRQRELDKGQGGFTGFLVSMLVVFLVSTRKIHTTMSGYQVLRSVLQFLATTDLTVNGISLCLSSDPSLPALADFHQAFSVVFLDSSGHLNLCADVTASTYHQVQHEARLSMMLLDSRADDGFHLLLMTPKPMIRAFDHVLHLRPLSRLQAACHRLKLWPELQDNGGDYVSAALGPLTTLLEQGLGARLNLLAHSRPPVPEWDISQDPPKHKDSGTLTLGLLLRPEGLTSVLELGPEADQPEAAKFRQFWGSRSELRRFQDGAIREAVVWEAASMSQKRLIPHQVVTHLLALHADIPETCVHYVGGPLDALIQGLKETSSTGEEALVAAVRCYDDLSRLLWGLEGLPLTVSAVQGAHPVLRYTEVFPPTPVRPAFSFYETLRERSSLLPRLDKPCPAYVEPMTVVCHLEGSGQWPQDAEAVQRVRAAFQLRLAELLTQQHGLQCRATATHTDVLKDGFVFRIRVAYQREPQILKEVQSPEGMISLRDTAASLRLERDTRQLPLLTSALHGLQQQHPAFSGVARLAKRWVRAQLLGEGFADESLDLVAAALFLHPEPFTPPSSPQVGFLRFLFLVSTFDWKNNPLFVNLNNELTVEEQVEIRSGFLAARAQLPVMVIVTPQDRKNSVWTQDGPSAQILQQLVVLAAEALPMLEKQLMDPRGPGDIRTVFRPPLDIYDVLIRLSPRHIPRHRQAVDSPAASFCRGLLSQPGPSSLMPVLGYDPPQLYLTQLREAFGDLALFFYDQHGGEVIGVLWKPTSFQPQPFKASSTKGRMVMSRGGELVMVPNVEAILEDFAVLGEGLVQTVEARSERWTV
UniProt Q96L73: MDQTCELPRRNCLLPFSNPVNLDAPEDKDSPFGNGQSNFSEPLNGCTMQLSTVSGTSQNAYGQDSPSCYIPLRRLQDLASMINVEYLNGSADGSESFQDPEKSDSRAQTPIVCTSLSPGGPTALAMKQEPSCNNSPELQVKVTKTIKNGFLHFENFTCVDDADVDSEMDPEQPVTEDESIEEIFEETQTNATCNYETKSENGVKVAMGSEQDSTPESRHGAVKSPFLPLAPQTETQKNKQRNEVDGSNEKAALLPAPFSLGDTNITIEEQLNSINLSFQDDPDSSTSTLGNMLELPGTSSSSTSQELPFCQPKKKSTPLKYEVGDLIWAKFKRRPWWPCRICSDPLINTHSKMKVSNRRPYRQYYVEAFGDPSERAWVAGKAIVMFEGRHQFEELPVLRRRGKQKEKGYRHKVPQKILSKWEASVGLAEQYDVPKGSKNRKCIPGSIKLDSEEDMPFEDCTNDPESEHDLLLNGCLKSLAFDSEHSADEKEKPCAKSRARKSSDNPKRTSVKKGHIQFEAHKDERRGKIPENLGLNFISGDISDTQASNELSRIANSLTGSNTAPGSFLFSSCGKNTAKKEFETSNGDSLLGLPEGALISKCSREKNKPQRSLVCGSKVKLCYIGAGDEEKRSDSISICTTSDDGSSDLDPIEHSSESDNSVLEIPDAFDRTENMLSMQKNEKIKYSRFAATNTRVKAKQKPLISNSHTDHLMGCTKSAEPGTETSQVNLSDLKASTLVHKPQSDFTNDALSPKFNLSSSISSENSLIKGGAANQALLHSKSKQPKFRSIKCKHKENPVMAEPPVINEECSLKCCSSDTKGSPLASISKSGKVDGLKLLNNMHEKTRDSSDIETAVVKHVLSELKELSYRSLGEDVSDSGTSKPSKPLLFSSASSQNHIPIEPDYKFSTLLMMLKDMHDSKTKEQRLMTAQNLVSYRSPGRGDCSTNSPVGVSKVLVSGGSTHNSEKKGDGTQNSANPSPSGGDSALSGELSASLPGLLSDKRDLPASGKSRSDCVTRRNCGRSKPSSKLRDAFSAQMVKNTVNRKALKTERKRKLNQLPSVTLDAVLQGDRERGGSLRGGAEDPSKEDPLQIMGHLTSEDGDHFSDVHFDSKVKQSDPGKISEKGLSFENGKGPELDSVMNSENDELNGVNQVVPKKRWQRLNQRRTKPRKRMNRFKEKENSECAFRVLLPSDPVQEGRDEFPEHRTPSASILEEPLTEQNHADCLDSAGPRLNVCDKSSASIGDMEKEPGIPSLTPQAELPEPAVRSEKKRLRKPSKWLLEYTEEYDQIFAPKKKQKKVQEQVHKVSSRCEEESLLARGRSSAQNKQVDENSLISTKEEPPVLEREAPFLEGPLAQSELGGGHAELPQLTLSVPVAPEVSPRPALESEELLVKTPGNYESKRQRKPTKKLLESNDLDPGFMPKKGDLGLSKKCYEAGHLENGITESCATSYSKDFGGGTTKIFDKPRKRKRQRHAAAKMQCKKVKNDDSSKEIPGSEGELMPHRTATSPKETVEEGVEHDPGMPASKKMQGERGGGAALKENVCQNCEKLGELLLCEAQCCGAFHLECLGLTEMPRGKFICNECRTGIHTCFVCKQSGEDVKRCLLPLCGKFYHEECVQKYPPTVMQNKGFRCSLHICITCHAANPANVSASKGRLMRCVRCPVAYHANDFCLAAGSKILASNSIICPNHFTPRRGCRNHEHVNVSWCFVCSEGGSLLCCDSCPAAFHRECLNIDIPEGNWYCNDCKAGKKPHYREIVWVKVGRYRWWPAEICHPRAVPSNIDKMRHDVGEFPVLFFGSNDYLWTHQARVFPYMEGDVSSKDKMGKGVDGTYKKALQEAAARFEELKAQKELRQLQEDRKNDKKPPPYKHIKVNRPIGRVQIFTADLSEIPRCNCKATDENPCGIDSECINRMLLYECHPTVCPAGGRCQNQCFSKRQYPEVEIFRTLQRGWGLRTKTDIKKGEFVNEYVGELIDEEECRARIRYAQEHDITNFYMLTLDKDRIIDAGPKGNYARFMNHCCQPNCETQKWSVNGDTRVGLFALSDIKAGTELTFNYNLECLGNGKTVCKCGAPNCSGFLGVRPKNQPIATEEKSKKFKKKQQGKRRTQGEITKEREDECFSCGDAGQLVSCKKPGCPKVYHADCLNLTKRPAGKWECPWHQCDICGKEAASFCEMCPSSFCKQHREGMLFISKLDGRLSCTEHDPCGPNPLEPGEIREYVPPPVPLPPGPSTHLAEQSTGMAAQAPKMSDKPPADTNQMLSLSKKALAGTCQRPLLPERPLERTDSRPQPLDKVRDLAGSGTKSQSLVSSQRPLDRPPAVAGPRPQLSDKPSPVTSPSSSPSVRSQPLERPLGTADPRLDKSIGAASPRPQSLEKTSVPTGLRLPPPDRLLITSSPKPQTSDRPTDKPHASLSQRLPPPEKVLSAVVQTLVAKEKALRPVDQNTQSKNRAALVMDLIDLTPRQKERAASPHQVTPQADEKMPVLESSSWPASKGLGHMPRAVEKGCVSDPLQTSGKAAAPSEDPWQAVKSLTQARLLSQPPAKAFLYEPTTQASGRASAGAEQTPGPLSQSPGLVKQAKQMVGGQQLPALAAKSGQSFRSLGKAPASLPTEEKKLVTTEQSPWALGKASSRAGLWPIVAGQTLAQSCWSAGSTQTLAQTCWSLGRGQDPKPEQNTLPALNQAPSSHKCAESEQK
UniProt O96028: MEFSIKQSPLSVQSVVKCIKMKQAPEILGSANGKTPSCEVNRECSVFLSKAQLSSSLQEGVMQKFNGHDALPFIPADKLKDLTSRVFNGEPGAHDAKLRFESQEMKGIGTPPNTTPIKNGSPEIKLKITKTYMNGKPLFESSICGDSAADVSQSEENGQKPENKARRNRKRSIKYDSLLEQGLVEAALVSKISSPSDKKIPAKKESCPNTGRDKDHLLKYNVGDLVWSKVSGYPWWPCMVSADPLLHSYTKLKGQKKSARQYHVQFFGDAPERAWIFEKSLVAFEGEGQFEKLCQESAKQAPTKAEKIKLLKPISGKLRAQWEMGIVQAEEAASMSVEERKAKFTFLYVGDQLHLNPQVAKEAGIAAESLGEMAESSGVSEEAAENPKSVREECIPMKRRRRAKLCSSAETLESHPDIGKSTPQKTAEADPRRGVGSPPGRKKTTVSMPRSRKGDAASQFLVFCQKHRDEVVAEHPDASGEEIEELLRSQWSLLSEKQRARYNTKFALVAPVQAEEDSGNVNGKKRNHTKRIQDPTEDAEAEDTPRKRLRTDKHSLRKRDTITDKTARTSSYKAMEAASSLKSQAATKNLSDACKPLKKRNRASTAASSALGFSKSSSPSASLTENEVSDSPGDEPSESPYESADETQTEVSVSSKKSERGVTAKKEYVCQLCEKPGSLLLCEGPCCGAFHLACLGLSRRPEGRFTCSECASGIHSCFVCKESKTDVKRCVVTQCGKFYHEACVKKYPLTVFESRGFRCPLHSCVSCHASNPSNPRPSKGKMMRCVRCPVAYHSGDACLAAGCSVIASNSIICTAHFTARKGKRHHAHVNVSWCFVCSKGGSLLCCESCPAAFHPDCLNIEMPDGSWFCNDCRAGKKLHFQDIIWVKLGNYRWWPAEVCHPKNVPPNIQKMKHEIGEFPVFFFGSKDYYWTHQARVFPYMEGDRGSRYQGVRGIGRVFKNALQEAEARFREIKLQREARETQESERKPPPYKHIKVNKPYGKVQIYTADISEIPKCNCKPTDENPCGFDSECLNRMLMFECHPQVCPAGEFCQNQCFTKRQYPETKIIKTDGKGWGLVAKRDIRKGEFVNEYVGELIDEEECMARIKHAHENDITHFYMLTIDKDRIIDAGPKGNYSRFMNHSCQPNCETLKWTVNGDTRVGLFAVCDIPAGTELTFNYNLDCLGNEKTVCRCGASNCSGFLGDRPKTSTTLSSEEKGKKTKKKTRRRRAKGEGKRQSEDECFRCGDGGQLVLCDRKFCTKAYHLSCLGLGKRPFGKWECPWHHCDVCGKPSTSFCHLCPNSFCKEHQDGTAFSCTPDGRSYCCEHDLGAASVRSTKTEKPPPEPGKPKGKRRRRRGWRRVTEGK
UniProt Q9NPE3: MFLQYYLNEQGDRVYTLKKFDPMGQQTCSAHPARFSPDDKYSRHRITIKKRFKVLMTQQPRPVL
UniProt Q08J23, whole entry, looked up: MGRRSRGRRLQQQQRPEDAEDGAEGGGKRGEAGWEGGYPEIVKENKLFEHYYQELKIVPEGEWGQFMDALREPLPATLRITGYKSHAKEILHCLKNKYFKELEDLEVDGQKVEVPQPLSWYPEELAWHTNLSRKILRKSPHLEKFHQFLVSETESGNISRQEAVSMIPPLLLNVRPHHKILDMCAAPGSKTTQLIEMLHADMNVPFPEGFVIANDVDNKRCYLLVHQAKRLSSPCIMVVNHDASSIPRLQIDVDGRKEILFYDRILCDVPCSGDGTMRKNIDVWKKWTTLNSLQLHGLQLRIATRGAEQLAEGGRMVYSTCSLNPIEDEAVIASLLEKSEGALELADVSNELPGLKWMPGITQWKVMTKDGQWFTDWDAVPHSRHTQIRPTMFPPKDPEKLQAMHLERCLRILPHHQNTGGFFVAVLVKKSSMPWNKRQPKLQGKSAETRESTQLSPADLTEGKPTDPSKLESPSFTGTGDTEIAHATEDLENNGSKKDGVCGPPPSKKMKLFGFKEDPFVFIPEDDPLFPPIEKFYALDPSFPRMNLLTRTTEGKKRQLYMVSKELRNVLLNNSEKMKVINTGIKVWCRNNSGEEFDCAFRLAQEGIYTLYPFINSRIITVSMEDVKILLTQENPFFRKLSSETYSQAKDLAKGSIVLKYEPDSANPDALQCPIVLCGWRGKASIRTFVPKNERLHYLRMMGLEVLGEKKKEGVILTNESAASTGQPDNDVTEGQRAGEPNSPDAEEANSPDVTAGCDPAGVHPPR
UniProt Q5TFE4: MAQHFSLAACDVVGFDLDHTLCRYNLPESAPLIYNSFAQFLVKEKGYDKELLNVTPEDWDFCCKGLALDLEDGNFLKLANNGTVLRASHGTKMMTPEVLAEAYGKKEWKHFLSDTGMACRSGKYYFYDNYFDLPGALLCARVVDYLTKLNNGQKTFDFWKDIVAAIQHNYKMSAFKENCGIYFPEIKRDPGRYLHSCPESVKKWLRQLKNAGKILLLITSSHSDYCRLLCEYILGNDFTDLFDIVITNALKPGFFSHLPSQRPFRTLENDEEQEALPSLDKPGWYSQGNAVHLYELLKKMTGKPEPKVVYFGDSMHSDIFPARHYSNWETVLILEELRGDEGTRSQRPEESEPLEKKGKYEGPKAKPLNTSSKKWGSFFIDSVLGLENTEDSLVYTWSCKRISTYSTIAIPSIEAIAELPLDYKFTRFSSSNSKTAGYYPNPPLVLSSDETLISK

The list shows a part of the results.
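Further: competitive profiling in live THP-1 cells: cysteine peptides tagged with an iodoacetamide desthiobiotin (IA-DTB) probe, intensity after compound treatment relative to DMSO-treated cells.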

In the case of “NT5C3B_Q969T7_56_CPSSYNILDNSK (UniProt Q969T7)”, the “probe-labelled cysteine peptide fold change” value (10 µM) is -0.0586 and the “probe-labelled cysteine peptide fold change” value (50 µM) was -0.351.
The corresponding values for “NLRP3_Q96P20_941_LLCEGLLHPDCK (UniProt Q96P20)” are -0.14 and -0.486.
The corresponding values for “NOA1_Q8NC60_272_LWEDCAR (UniProt Q8NC60)” are -0.052 and -0.275.
In the same order, the values of “NOL6_Q9H6R4_256_LHPCPPPDFFRPCR (UniProt Q9H6R4)” are -0.126 and -0.0602.
As for “NSDHL_Q15738_104_GVNTVFHCASPPPSSNNK (UniProt Q15738)”, the “probe-labelled cysteine peptide fold change” value is, setting by setting: (10 µM) -0.0109; (50 µM) -0.00955.
Consider “NPTN_Q9Y639_218_AEDSGEYHCVYHFVSAPK (UniProt Q9Y639)”, for which the “probe-labelled cysteine peptide fold change” value by setting is: (10 µM) -0.0596; (50 µM) -0.112.
The corresponding values for “NSRP1_Q9H0G5_232_CILQTDVK (UniProt Q9H0G5)” are -0.534 and 0.172.
The corresponding values for “NOTCH2_Q04721_264_NIDDCPNHR (UniProt Q04721)” are 0.0708 and 0.126.
As to “NTHL1_P78549_290_ELWHEINGLLVGFGQQTCLPVHPR (UniProt P78549)”, the “probe-labelled cysteine peptide fold change” value was determined as 0.0835 (10 µM) and 0.0158 (50 µM).
In the same order, the values of “NLN_Q9BYT8_451+458_YNHAACFGLQPGCLLPDGSR (UniProt Q9BYT8)” are 0.0908 and -0.261.
The corresponding values for “NOCT_Q9UK39_165_DNFVQCPVEALKWEER (UniProt Q9UK39)” are -0.16 and -0.412.
In the same order, the values of “NNT_Q13423_1073_TCDALQAK (UniProt Q13423)” are -0.31 and -0.0885.
With “NMD3_Q96D46_383_THLGHLLNPGDLVLGFDLANCNLNDEHVNK (UniProt Q96D46)”, the “probe-labelled cysteine peptide fold change” value reads like this: (10 µM) 0.0426; (50 µM) -0.0789.
In the same order, the values of “NRDE2_Q9H7Z3_900_AYEHALQDCLGDSCVSNPAPTDSCSR (UniProt Q9H7Z3)” are -0.0512 and 0.333.
The corresponding values for “NSD1_Q96L73_1185_ENSECAFR (UniProt Q96L73)” are 0.489 and 0.234.
The corresponding values for “NOM1_Q5C9Z4_696_EIIHVLMDCCLQEK (UniProt Q5C9Z4)” are 0.202 and -0.00117.
Regarding “NR2C2_P49116_153_NLTYSCR (UniProt P49116)”, the “probe-labelled cysteine peptide fold change” value is, setting by setting: (10 µM) 0.115; (50 µM) -0.0771.
On to “NOL9_Q5SY16_219_WSMQNFSPQCSIVLLEHLK (UniProt Q5SY16)”, for which the “probe-labelled cysteine peptide fold change” value turned out to be 0.108 (10 µM) and 0.0193 (50 µM).
As to “NSD2_O96028_1102_KGEFVNEYVGELIDEEECMAR (UniProt O96028)”, the “probe-labelled cysteine peptide fold change” value runs as follows: (10 µM) -0.0789; (50 µM) -0.308.
In the same order, the values of “NRDC_O43847_1027_LKECEDTHLGEEVDR (UniProt O43847)” are -0.162 and -0.281.
The corresponding values for “NTMT1_Q9BV86_184_DNMAQEGVILDDVDSSVCR (UniProt Q9BV86)” are -0.168 and -0.0708.
In the case of “NOP10_Q9NPE3_28_FDPMGQQTCSAHPAR (UniProt Q9NPE3)”, the “probe-labelled cysteine peptide fold change” value is, setting by setting: (10 µM) -0.0182; (50 µM) 0.0234.
“NSUN2_Q08J23_221_RCYLLVHQAK (UniProt Q08J23)”: the “probe-labelled cysteine peptide fold change” value (10 µM) was determined as 0.193 and the “probe-labelled cysteine peptide fold change” value (50 µM) was 0.286.
In the case of “NOB1_Q9ULX3_288_VFCSHCGNK (UniProt Q9ULX3)”, the “probe-labelled cysteine peptide fold change” value (10 µM) was 0.179 and the “probe-labelled cysteine peptide fold change” value (50 µM) turned out to be 0.00394.
In the same order, the values of “NQO2_P16083_223_EEPIPCTAHWHFGQ (UniProt P16083)” are 0.033 and 0.169.
Consider “NSD1_Q96L73_2072_CGAPNCSGFLGVRPK (UniProt Q96L73)”, for which the “probe-labelled cysteine peptide fold change” value by setting is: (10 µM) -0.0183; (50 µM) 0.0106.
Take “NOTCH1_P46531_1218_GTQGVHCEINVDDCNPPVDPVSR (UniProt P46531)”: the “probe-labelled cysteine peptide fold change” value stood at 0.00206 (10 µM) and 0.173 (50 µM).
In the same order, the values of “NSUN5P1_Q3KNT7_77_ALCHALTFPSLQR (UniProt Q3KNT7)” are 0.0525 and 0.0719.
In the case of “NSD2_O96028_743_FYHEACVK (UniProt O96028)”, the “probe-labelled cysteine peptide fold change” value was -0.0303 (10 µM) and -0.202 (50 µM).
The corresponding values for “NRF1_Q16656_229_ESCKPIWWPEDIPWANVR (UniProt Q16656)” are 0.0541 and -0.0816.
In the same order, the values of “NT5DC1_Q5TFE4_63_ELLNVTPEDWDFCCK (UniProt Q5TFE4)” are 0.0256 and -0.132.
Regarding “NMNAT1_Q9HAN9_111_LEASDCDHQQNSPTLERPGR (UniProt Q9HAN9)”, the “probe-labelled cysteine peptide fold change” value was -0.477 (10 µM) and -0.0623 (50 µM).
The corresponding values for “NSUN2_Q08J23_235_LSSPCIMVVNHDASSIPR (UniProt Q08J23)” are 0.0902 and 0.111.
As for “NSMAF_Q92636_809_EGTVNIWDLTTATLMHQIPCHSGIVCDTAFSPDSR (UniProt Q92636)”, the “probe-labelled cysteine peptide fold change” value is -0.244 (10 µM) and -0.18 (50 µM).
The corresponding values for “NMD3_Q96D46_250_STFSVEIVPICK (UniProt Q96D46)” are 0.105 and -0.0615.
In the same order, the values of “NOL6_Q9H6R4_1034_QAVDSPAASFCR (UniProt Q9H6R4)” are 0.0206 and -0.157.
The corresponding values for “NPM1_P06748_21_MEDSMDMDMSPLRPQNYLFGCELK (UniProt P06748)” are -0.208 and -0.505.
For “NONO_Q15233_208_CSEGSFLLTTFPRPVTVEPMDQLDDEEGLPEK (UniProt Q15233)”, the “probe-labelled cysteine peptide fold change” value by setting is: (10 µM) -0.0258; (50 µM) -0.158.

Source of the values: the supplement of paper PMC12067093, “Discovery and optimisation of a covalent ligand for TRIM25 and its application to targeted protein ubiquitination” (Chemical Science, 2025).
